Publication PMC6969024
Results are given in words; binding and its absence hold for the method and conditions named. Binding seen in cells or lysates may run through a third protein. Some entries that bind do so weakly or less than the wild type.

Amino acid sequences for entries named in this document (tags omitted).
UniProt Q8BG87: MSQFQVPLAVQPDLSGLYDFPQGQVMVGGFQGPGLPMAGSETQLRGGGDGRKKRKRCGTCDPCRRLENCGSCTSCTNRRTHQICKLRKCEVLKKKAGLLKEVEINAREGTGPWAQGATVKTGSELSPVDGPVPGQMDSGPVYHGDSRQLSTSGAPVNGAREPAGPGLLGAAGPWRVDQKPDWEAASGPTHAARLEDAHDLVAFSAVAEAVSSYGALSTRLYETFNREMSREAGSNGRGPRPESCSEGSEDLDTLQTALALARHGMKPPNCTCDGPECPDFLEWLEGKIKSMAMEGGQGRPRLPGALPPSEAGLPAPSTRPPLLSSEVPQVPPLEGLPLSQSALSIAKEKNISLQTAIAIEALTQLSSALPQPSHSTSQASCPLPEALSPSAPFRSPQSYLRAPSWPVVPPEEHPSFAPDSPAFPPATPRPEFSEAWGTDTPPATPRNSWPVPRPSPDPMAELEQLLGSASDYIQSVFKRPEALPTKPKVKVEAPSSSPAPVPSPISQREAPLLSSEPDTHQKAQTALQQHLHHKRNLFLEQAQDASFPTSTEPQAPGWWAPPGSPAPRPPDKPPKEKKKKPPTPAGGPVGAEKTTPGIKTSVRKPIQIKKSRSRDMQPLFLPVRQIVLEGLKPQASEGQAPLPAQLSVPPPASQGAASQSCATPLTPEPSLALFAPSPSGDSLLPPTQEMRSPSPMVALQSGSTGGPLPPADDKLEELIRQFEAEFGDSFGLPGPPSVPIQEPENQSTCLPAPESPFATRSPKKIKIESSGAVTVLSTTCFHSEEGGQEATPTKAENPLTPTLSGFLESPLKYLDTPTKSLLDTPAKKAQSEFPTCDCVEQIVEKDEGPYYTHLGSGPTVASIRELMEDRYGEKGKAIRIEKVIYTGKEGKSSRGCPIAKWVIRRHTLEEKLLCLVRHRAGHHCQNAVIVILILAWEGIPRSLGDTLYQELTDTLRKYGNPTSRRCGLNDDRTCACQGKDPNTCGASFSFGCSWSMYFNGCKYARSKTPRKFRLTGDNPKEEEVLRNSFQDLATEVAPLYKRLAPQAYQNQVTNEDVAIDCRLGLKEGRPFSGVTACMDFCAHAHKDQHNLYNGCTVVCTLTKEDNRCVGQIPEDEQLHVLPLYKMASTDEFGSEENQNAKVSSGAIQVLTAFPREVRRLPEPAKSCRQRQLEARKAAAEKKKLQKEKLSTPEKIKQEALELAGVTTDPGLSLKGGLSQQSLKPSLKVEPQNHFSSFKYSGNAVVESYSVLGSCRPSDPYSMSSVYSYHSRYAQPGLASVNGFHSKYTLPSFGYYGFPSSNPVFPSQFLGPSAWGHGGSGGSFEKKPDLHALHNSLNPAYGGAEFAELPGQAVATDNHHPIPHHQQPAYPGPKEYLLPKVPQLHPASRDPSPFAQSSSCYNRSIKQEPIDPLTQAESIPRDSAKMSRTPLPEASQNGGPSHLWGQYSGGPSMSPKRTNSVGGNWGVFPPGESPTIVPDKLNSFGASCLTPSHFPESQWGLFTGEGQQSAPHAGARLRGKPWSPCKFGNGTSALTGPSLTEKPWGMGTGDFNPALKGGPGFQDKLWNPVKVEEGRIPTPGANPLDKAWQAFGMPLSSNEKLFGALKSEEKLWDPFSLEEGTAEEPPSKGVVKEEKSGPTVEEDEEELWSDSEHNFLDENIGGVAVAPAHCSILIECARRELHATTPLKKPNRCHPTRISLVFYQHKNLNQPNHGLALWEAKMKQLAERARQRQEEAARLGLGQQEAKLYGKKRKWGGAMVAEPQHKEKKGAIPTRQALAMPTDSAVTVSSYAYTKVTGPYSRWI

T1: FOXA2 (mouse (endogenous in mouse primary hepatocytes)) (UniProt P35583)
T1 sequence: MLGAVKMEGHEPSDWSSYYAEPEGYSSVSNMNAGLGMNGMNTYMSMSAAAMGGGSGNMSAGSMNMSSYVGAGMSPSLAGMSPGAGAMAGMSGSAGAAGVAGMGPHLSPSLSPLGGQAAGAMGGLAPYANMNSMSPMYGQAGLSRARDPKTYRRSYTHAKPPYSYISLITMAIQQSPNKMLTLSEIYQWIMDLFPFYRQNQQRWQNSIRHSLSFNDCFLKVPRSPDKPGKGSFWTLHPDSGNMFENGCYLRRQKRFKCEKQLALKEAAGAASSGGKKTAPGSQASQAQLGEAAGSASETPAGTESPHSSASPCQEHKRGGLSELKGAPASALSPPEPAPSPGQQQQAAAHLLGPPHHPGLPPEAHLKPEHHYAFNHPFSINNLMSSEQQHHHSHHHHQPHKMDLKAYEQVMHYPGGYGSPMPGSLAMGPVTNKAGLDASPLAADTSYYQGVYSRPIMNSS

B1: FOXA2 (protein, UniProt P35583 1-459)
chain: T1 sequence

How the values were obtained:
[1] = target: T1, FOXA2 (mouse (endogenous in mouse primary hepatocytes)); experiment: co-IP; lysate of H19 KO mouse hepatocytes infected with Ad-TET3 for 24 h; IP with rabbit polyclonal anti-TET3 or goat polyclonal anti-FOXA2 (preimmune IgG as control) on Protein A/G beads, 4 °C overnight, lysate at 150 mM NaCl, washes in IP buffer (1% Triton X-100, 300 mM NaCl, 10 mM Tris-HCl pH 7.5, 10 mM EDTA); immunoblot
[2] = target: TET3 (endogenous, WT mouse primary hepatocytes) (mouse (endogenous in mouse primary hepatocytes)) (UniProt Q8BG87); experiment: co-IP; lysate of WT mouse primary hepatocytes treated with glucagon (20 nM) or vehicle for 24 h; IP with anti-TET3 antibody on Protein A/G beads, 4 °C overnight, washes in IP buffer (300 mM NaCl); immunoblot for FOXA2
[3] = target: TET3 (mouse full-length TET3 ORF expressed from the adenovirus Ad-TET3) (mouse) (UniProt Q8BG87); experiment: co-IP; lysate of H19 KO mouse hepatocytes infected with Ad-TET3 for 24 h; IP with rabbit polyclonal anti-TET3 or goat polyclonal anti-FOXA2 (preimmune IgG as control) on Protein A/G beads, 4 °C overnight, lysate at 150 mM NaCl, washes in IP buffer (1% Triton X-100, 300 mM NaCl, 10 mM Tris-HCl pH 7.5, 10 mM EDTA); immunoblot

Molecule	binding [1]	binding [2]	binding [3]
TET3 (mouse full-length TET3 ORF expressed from the adenovirus Ad-TET3) (from UniProt Q8BG87 1-1803)	binds	–	–
B1	–	binds	binds
